System: hAd4 viral particles
Conditions: hAd4 particle suspension treated 1 h at room temperature; CPC 0,05% in PBS or SinoFresh; FIG. 4
Experimental: A suspension of hAd4 viral particles was treated with PBS, CPC 0,05% in PBS or SinoFresh™ for 1 h at room temperature. Shown there is the electron microscopy of hAd4 viral particles treated with PBS, CPC 0.05% in PBS or SinoFresh® product for 1 h at room temperature.

SMILES: CCCCCCCCCCCCCCCC[n+]1ccccc1 [CPC, 1-hexa-decyl pyridinium chloride]
- disruption of viral particles (electron microscopy): total disruption of viral particles

Source: patent US20060019987A1, “Methods and compositions for inhibiting, destroying, and/or inactivating viruses” (priority 2004, published 2006)
